Binding data for two molecules are collected here from article PMC5955133.

The chains behind the UniProt entries cited, without tags or fusion partners.
UniProt P06788: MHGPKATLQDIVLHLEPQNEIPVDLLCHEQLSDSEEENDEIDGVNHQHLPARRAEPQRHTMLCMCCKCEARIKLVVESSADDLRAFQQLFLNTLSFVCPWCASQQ

No constants are given. Whether binding was seen depends on the method and setting. Binding seen in cells or lysates may run through a third protein. Some binding calls cover weakened binding; strength is not graded here. Sequences can lack the tags named with a protein.

The target of experiment [1] is T1, recombinant human GSTM3 protein with a His-tag added at the N-terminus (N-6x His-tag) (human) (UniProt P21266).
T1 sequence: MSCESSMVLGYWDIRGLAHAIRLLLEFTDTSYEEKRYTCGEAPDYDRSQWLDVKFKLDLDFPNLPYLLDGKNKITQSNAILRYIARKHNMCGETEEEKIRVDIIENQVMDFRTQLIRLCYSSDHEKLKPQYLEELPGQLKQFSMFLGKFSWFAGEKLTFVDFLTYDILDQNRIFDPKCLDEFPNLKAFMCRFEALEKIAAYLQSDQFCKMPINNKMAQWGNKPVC
In words: pull-down; recombinant GSTM3 N-6x His captured (nickel beads), incubated with a protein extract from HeLa cells; eluate blotted with anti-HPV18 E7; only the target purified.

The target in experiment [2] is recombinant HPV18 E7 C-6x-his-tagged protein (HPV18) (UniProt P06788). In words: pull-down; HeLa cells transfected with HPV18 E7 C-6x His; cell lysates subjected to Ni 6x His-tag pull-down; western blot; GSTM3 identified by MALDI-TOF and/or MS/MS.

As for “E7 protein from HPV18 (from UniProt P06788 1-105)”, in experiment [1], the binding result was “binds”.

B1: GSTM3 (glutathione S-transferase family member) (protein, UniProt P21266 1-225)
chain: MSCESSMVLGYWDIRGLAHAIRLLLEFTDTSYEEKRYTCGEAPDYDRSQWLDVKFKLDLDFPNLPYLLDGKNKITQSNAILRYIARKHNMCGETEEEKIRVDIIENQVMDFRTQLIRLCYSSDHEKLKPQYLEELPGQLKQFSMFLGKFSWFAGEKLTFVDFLTYDILDQNRIFDPKCLDEFPNLKAFMCRFEALEKIAAYLQSDQFCKMPINNKMAQWGNKPVC
Consider B1, for which the binding entry in experiment [2] is “binds”.
